Results on three substances are retold here after publication PMC11006759.

Protein sequences, listed by entry. Tags and fused reporters are not part of them.
UniProt Q9H0J4: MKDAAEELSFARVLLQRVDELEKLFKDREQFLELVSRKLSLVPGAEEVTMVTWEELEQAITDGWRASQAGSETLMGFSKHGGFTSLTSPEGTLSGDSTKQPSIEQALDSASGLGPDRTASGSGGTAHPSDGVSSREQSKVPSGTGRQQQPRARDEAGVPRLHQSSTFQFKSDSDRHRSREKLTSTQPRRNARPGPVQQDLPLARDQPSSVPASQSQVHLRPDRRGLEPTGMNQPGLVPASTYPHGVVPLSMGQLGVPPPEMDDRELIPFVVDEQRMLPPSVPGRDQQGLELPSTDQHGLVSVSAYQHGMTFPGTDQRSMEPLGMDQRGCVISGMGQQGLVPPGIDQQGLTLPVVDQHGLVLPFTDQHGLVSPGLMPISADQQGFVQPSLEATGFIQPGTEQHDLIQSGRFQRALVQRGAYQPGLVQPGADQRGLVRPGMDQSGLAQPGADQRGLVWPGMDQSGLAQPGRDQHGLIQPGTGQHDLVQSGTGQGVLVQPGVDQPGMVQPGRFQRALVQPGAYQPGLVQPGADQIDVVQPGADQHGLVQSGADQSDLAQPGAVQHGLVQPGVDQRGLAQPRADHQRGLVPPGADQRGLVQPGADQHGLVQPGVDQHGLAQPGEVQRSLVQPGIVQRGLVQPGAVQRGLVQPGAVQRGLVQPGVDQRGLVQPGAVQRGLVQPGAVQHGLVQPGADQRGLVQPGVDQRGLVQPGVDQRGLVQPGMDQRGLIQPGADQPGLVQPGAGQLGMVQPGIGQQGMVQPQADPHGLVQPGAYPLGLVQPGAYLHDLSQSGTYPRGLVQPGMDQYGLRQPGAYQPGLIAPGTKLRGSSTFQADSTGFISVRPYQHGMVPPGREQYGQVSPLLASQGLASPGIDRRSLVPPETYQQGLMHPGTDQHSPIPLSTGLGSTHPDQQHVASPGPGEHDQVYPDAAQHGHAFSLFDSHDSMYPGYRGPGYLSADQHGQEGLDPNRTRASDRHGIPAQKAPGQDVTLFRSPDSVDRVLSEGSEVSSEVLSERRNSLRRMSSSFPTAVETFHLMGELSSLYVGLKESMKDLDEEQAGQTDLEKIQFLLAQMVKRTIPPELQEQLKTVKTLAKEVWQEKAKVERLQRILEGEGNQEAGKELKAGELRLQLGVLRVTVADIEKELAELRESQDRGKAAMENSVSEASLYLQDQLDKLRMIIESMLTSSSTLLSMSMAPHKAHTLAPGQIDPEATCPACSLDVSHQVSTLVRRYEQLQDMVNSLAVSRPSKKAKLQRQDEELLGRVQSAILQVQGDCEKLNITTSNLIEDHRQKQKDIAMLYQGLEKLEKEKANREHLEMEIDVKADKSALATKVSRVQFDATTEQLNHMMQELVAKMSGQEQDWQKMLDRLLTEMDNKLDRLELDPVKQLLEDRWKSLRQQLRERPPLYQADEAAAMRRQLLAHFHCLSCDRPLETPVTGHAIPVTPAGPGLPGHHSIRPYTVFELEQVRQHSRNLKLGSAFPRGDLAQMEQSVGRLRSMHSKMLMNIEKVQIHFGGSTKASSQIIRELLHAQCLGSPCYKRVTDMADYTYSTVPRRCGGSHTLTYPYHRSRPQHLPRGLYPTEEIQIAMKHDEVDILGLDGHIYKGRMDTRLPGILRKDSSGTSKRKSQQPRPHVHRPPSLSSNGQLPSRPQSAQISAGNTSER
UniProt P07437: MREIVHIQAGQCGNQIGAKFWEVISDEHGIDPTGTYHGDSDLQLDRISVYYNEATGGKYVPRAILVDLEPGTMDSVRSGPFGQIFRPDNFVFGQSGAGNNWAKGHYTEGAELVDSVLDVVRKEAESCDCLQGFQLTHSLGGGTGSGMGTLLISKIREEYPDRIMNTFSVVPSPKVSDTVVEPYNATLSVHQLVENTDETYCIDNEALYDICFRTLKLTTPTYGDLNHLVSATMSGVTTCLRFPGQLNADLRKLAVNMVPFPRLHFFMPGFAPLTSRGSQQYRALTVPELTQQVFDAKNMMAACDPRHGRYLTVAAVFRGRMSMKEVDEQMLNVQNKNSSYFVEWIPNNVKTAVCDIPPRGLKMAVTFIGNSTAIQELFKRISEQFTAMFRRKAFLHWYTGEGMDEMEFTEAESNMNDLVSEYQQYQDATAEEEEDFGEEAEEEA
UniProt Q9BQE3: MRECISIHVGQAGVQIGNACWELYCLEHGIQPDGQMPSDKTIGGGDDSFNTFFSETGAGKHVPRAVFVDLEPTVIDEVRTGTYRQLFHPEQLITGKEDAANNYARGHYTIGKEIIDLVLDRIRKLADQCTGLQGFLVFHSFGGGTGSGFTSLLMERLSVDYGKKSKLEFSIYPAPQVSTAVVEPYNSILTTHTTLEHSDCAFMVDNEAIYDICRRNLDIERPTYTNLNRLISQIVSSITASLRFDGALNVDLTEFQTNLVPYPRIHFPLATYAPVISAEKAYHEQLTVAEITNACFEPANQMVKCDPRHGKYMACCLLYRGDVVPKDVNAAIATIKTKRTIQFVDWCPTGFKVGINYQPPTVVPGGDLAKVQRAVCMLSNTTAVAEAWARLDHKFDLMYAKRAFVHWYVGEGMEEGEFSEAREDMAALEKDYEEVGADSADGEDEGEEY
UniProt P68371: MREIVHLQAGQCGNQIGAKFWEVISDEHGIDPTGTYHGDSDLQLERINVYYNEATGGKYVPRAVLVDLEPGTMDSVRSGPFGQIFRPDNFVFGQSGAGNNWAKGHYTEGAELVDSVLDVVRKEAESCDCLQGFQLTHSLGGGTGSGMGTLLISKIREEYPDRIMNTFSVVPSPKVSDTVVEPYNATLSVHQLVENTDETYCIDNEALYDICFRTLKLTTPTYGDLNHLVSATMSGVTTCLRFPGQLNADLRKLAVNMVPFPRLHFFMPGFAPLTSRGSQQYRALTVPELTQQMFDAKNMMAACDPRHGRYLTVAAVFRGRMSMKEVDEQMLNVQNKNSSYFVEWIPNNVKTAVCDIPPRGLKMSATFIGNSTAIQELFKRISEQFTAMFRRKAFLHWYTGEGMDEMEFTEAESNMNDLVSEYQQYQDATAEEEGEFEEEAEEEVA

No constants are given. Whether binding was seen depends on the method and setting. Binding seen in cells or lysates may run through a third protein. A yes stands for co-enrichment or nearness to the bait. Other partners may have been found.

For the assay, the target named is QRICH2 (bait of the IP-Mass spectrometry) (UniProt Q9H0J4). The assay can be described thus: affinity purification with mass spectrometry; IP-Mass spectrometry of QRICH2; told only in the discussion, no methods given.

On to TUBB (from UniProt P07437 1-444), for which the binding entry was “binds”.

For TUBA1C (from UniProt Q9BQE3 1-449), the binding entry is reported as “binds”.

Turning to TUBB4B (from UniProt P68371 1-445), the binding result is given as “binds”.
